No constants are given. Whether binding was seen depends on the method and setting. Binding calls can cover weak binding; strength is not graded here. For part of these data: Tags and fused reporters may be left off the sequences shown.

The target in assay [1] is T1, His-tagged cytosolic part of SpoIIE (375-827 aa) (B. subtilis) (UniProt P37475).
T1 sequence: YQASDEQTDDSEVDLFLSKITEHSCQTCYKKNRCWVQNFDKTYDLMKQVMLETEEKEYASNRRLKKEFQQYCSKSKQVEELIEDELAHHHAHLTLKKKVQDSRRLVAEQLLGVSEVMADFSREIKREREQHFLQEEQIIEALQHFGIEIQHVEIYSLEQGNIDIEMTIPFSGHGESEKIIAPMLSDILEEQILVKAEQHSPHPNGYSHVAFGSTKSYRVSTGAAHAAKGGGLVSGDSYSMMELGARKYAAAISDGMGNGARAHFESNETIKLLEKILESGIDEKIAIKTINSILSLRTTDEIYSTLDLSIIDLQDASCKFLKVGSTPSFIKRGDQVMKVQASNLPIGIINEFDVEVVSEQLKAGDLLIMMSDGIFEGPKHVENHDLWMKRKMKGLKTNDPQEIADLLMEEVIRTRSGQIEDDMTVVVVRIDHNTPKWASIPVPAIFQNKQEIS
As to the kind of experiment: SEC; Superdex S200 16/60 in 50 mM Tris-HCl pH 8.5, 300 mM NaCl; proteins applied separately or mixed (350 ul RefZ 28.8 uM premixed with 350 ul cyt-SpoIIE 15.5 uM, dialyzed overnight, 500 ul loaded); fractions analysed by anti-His Western blot; both purified. In general terms: Size exclusion chromatography separates by hydrodynamic size, large species first.

Another assay deals with T2, DivIVA (B. subtilis) (UniProt P71021).
T2 sequence: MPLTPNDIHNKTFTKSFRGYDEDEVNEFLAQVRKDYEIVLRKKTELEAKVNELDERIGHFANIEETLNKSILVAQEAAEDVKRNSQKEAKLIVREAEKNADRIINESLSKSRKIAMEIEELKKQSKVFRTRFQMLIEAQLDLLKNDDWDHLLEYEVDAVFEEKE
Briefly: two-hybrid; bacterial two-hybrid (BACTH): fusions to adenylate cyclase fragments T18 and T25 cotransformed into E. coli BTH101 (delta cya); spotted on LB plates with X-Gal and 0.5 mM IPTG, 24 to 48 h at 30 °C; beta-galactosidase activity in Miller units.

The target in the next assay is RefZ (B. subtilis). The description is as above.

Take “His-tagged RefZ with His-tag fused to its N terminus (B. subtilis)”: the binding result in assay [1] is listed as “binds”. Regarding “SpoIIE membrane domain D1 + the regulatory domain D2 (D1D2-IIE) (B. subtilis) (domain or fragment)”, the binding result in the assay with DivIVA (B. subtilis) is “binds”.

B1: SpoIIE (protein, UniProt P37475 1-827)
chain: MEKAERRVNGPMAGQALEKLQSFFNRGTKLVTHHLHSLFFYKGFIYVVIGFLLGRAFILSEVLPFALPFFGAMLLIRRDKAFYAVLAVLAGALTISPKHSLLILAALLAFFVFSKVAAFITDDRVKALPIVVFFSMAAARAGFVYAQNGVFTTYDYVMAIVEAGLSFILTLIFLQSLPIFTVKKVKQSLKIEEIICFMILIASVLTGLAGLSYQGMQAEHILARYVVLSFSFIGGASIGCTVGVVTGLILGLANIGNLYQMSLLAFSGLLGGLLKEGKKAGAAIGLIVGSLLISLYGEGSAGLMTTLYESLIAVCLFLLTPQSITRKVARYIPGTVEHLQEQQQYARKIRDVTAQKVDQFSNVFHALSESFATFYQASDEQTDDSEVDLFLSKITEHSCQTCYKKNRCWVQNFDKTYDLMKQVMLETEEKEYASNRRLKKEFQQYCSKSKQVEELIEDELAHHHAHLTLKKKVQDSRRLVAEQLLGVSEVMADFSREIKREREQHFLQEEQIIEALQHFGIEIQHVEIYSLEQGNIDIEMTIPFSGHGESEKIIAPMLSDILEEQILVKAEQHSPHPNGYSHVAFGSTKSYRVSTGAAHAAKGGGLVSGDSYSMMELGARKYAAAISDGMGNGARAHFESNETIKLLEKILESGIDEKIAIKTINSILSLRTTDEIYSTLDLSIIDLQDASCKFLKVGSTPSFIKRGDQVMKVQASNLPIGIINEFDVEVVSEQLKAGDLLIMMSDGIFEGPKHVENHDLWMKRKMKGLKTNDPQEIADLLMEEVIRTRSGQIEDDMTVVVVRIDHNTPKWASIPVPAIFQNKQEIS
Turning to B1, in the assay with RefZ (B. subtilis), the binding result was “binds”.
